The list is a part of this screen's results and no random one: it gathers tests that were run many times, whatever their T/C, doses with no T/C, and many T/C values between a quarter and a half above the control. Other doses and runs of a compound stand elsewhere. T/C is the treated group as % of the vehicle group. Some entries give survivors of the animals treated and no T/C: the source files T/C as zero there, which appears to mark a toxic dose or a test without result, not a measured value. Some survivor counts are full or nearly so, which does not show that the dose was tolerated: the source hardly ever lists a survival T/C far under the control, and the zero likely stands for such cases as well. Counts of survivors are from the toxicity check (mostly the fifth day) where no day follows; animals may have died later. Schedules are NCI's codes, taken here to give the interval after Q, in days (D) or hours (H), and the number of doses after X. Where survival is the endpoint, this PubChem deposit counts one and a half times the control or more as active, and values a quarter to a half above the control carry no call in these data; other NCI protocols may use other cut-offs.
System: BDF1 mice, P388 leukemia ip, median survival T/C
Test: NCI In Vivo Anticancer Drug Screen. Data for tumor model P388 Leukemia (intraperitoneal) in B6D2F1 (BDF1) mice
Conditions: T/C endpoint: median survival time, higher T/C = longer survival
How it was run: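 Transplantable tumour in mice; compound vs vehicle dosing; survival scored; ratio of treated to control reported.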

For `O=C1C=CC(=O)N1CO`, the survivor count (dose: 5.0 mg/kg/injection, schedule: Q01DX009 (ip), vehicle: saline) was 5 of 6, the survivor count (dose: 12.0 mg/kg/injection, schedule: Q04DX003 (ip), vehicle: saline) was 0 of 6 and the survivor count (dose: 19.0 mg/kg/injection, schedule: Q04DX003 (ip), vehicle: saline) was 0 of 6. For the same compound, the survivor count (dose: 28.0 mg/kg/injection, schedule: Q04DX003 (ip), vehicle: saline) was 0 of 6.
In the case of `CC(=O)O[C@H]1CC[C@H]2[C@@H]3CC[C@H]4C[C@@H]5[C@H](C[C@]4(C)[C@H]3CC[C@]12C)C5(F)F`, the survivor count (dose: 25.0 mg/kg/injection, schedule: Q01DX009 (ip), vehicle: Klucel (hydroxypropylcellulose) (HPC)) is reported as 6 of 6, the survivor count (dose: 25.0 mg/kg/injection, schedule: Q04DX003 (ip), vehicle: Klucel (hydroxypropylcellulose) (HPC)) is reported as 6 of 6 and the survivor count (dose: 50.0 mg/kg/injection, schedule: Q01DX009 (ip), vehicle: Klucel (hydroxypropylcellulose) (HPC)) is reported as 6 of 6. The survivor count (dose: 50.0 mg/kg/injection, schedule: Q04DX003 (ip), vehicle: Klucel (hydroxypropylcellulose) (HPC)) was 6 of 6, the survivor count (dose: 100.0 mg/kg/injection, schedule: Q01DX009 (ip), vehicle: Klucel (hydroxypropylcellulose) (HPC)) was 6 of 6 and the survivor count (dose: 100.0 mg/kg/injection, schedule: Q04DX003 (ip), vehicle: Klucel (hydroxypropylcellulose) (HPC)) was 6 of 6. For the same compound, the survivor count (dose: 200.0 mg/kg/injection, schedule: Q04DX003 (ip), vehicle: Klucel (hydroxypropylcellulose) (HPC)) was 6 of 6 and the survivor count (dose: 400.0 mg/kg/injection, schedule: Q04DX003 (ip), vehicle: Klucel (hydroxypropylcellulose) (HPC)) was 6 of 6.
With `Cn1c(N)c(N=Cc2ccc(Cl)cc2)c(=O)n(C)c1=O` the survivor count (dose: 400.0 mg/kg/injection, schedule: Q04DX003 (ip), vehicle: saline with Tween-80) was 3 of 6.
In the case of `Cn1nnc2nnc(-c3ccccc3)n21`, the survivor count (dose: 400.0 mg/kg/injection, schedule: Q01DX009 (ip), vehicle: saline with Tween-80) is reported as 4 of 6.
For `COc1ccc(Cl)cc1N`, the survivor count (dose: 200.0 mg/kg/injection, schedule: Q01DX009 (ip), vehicle: saline with Tween-80) was 0 of 6.
In the case of `CC[C@](C)(O)C(=O)O[C@H]1C(=O)O[C@@H]2C[C@H]3C(C)=C[C@H](O)[C@@H](O)[C@]3(C)[C@H]3[C@@]4(O)OC[C@]32[C@@H]1[C@@H](C)[C@H]4O`, the T/C (dose: 2.0 mg/kg/injection, schedule: Q01DX010 (ip), vehicle: other) is reported as 127 % of control, the survivor count (dose: 8.0 mg/kg/injection, schedule: Q01DX010 (ip), vehicle: other) is reported as 1 of 4 and the survivor count (dose: 10.0 mg/kg/injection, schedule: Q01DX010 (ip), vehicle: carboxymethylcellulose (CMC)) is reported as 0 of 6. For the same compound, the survivor count (dose: 20.0 mg/kg/injection, schedule: Q01DX010 (ip), vehicle: carboxymethylcellulose (CMC)) was 0 of 6.
For `COC(=O)c1c2ccccc2cn1Cc1ccccc1`, the survivor count (dose: 100.0 mg/kg/injection, schedule: Q01DX009 (ip), vehicle: saline with Tween-80) was 6 of 6.

— PubChem BioAssay AID328 (DTP/NCI, 2004)
